# Measurements taken from PMC4655335.
# No constants are given. Whether binding was seen depends on the method and setting. Some binding calls cover weakened binding; strength is not graded here. Sequences can lack the tags named with a protein.
# B1: human carbamoyl phosphate synthetase (CPS1), mature, N-terminal His6-tag (enzyme, UniProt P31327 38-1500)
# chain: LLSVKAQTAHIVLEDGTKMKGYSFGHPSSVAGEVVFNTGLGGYPEAITDPAYKGQILTMANPIIGNGGAPDTTALDELGLSKYLESNGIKVSGLLVLDYSKDYNHWLATKSLGQWLQEEKVPAIYGVDTRMLTKIIRDKGTMLGKIEFEGQPVDFVDPNKQNLIAEVSTKDVKVYGKGNPTKVVAVDCGIKNNVIRLLVKRGAEVHLVPWNHDFTKMEYDGILIAGGPGNPALAEPLIQNVRKILESDRKEPLFGISTGNLITGLAAGAKTYKMSMANRGQNQPVLNITNKQAFITAQNHGYALDNTLPAGWKPLFVNVNDQTNEGIMHESKPFFAVQFHPEVTPGPIDTEYLFDSFFSLIKKGKATTITSVLPKPALVASRVEVSKVLILGSGGLSIGQAGEFDYSGSQAVKAMKEENVKTVLMNPNIASVQTNEVGLKQADTVYFLPITPQFVTEVIKAEQPDGLILGMGGQTALNCGVELFKRGVLKEYGVKVLGTSVESIMATEDRQLFSDKLNEINEKIAPSFAVESIEDALKAADTIGYPVMIRSAYALGGLGSGICPNRETLMDLSTKAFAMTNQILVEKSVTGWKEIEYEVVRDADDNCVTVCNMENVDAMGVHTGDSVVVAPAQTLSNAEFQMLRRTSINVVRHLGIVGECNIQFALHPTSMEYCIIEVNARLSRSSALASKATGYPLAFIAAKIALGIPLPEIKNVVSGKTSACFEPSLDYMVTKIPRWDLDRFHGTSSRIGSSMKSVGEVMAIGRTFEESFQKALRMCHPSIEGFTPRLPMNKEWPSNLDLRKELSEPSSTRIYAIAKAIDDNMSLDEIEKLTYIDKWFLYKMRDILNMEKTLKGLNSESMTEETLKRAKEIGFSDKQISKCLGLTEAQTRELRLKKNIHPWVKQIDTLAAEYPSVTNYLYVTYNGQEHDVNFDDHGMMVLGCGPYHIGSSVEFDWCAVSSIRTLRQLGKKTVVVNCNPETVSTDFDECDKLYFEELSLERILDIYHQEACGGCIISVGGQIPNNLAVPLYKNGVKIMGTSPLQIDRAEDRSIFSAVLDELKVAQAPWKAVNTLNEALEFAKSVDYPCLLRPSYVLSGSAMNVVFSEDEMKKFLEEATRVSQEHPVVLTKFVEGAREVEMDAVGKDGRVISHAISEHVEDAGVHSGDATLMLPTQTISQGAIEKVKDATRKIAKAFAISGPFNVQFLVKGNDVLVIECNLRASRSFPFVSKTLGVDFIDVATKVMIGENVDEKHLPTLDHPIIPADYVAIKAPMFSWPRLRDADPILRCEMASTGEVACFGEGIHTAFLKAMLSTGFKIPQKGILIGIQQSFRPRFLGVAEQLHNEGFKLFATEATSDWLNANNVPATPVAWPSQEGQNPSLSSIRKLIRDGSIDLVINLPNNNTKFVHDNYVIRRTAVDSGIPLLTNFQVTKLFAEAVQKSRKVDSKSLFHYRQYSAGKAA
# Target: human carbamoyl phosphate synthetase (CPS1), mature, N-terminal His6-tag (human) (UniProt P31327)
# Test: crystal structure; crystals of apo CPS1 (2.4 Å, P21, two subunits = one dimer in the asymmetric unit) and of ligand-bound CPS1 (NAG, ADP; 2.6 Å, P1, four subunits = two dimers); both purified
binder,measurement,value
B1,binding,binds weakly
